{"source": "patent US8338337B2", "about": "“Substituted pyridines having a herbicidal effect” (BASF SE, priority 2008, dated 2012)", "experiment_in_all_cases": "greenhouse post-emergence herbicidal test", "key": {"SETFA": {"test_system": "SETFA", "type": "in vivo, Setaria faberi", "conditions": "scale 0 to 100"}, "ABUTH": {"test_system": "ABUTH", "type": "in vivo, Abutilon theophrasti", "conditions": "scale 0 to 100", "description": "The seeds of the test plants were sown separately for each species. For the post-emergence treatment, the test plants were first grown to a height of 3 to 15 cm, depending on the plant habit, and then treated with the active compounds which had been suspended or emulsified in water. For this purpose, the test plants were either sown directly and grown in the same containers, or they were first grown separately as seedlings and transplanted into the test containers a few days prior to treatment. Depending on the species, the plants were kept at 10-25° C. or 20-35° C. The test period extended over 2 to 4 weeks. During this time, the plants were tended, and their response to the individual treatments was evaluated. Evaluation was carried out using a scale from 0 to 100. 100 means no emergence of the plants, or complete destruction of at least the aerial moieties, and 0 means no damage, or normal course of growth. A good herbicidal activity is given at values of at least 70 and a very good herbicidal activity is given at values of at least 85. [table]"}, "AVEFA": {"test_system": "AVEFA", "type": "in vivo, Avena fatua", "conditions": "3.0 kg/ha, scale 0 to 100"}, "CHEAL": {"test_system": "CHEAL", "type": "in vivo, Chenopodium album", "conditions": "scale 0 to 100"}, "ECHCG": {"test_system": "ECHCG", "type": "in vivo", "conditions": "0.5 kg/ha, scale 0 to 100"}, "AMARE": {"test_system": "AMARE", "type": "in vivo, Amaranthus retroflexus", "conditions": "scale 0 to 100"}, "SETVI": {"test_system": "SETVI", "type": "in vivo, Setaria viridis", "conditions": "scale 0 to 100"}}, "note": "Some entries share one result that the patent states for a list of compounds.", "data": [{"smiles": "O=C(O)C(F)(F)F.O=c1oc2cccnc2c(O)c1-c1ccccc1C(F)F", "note": "[I-10]", "values": [{"measurement": "herbicidal activity against SETFA", "setting": "SETFA; 3.0 kg/ha", "result": "very good (a very good herbicidal activity is given at values of at least 85)"}, {"measurement": "herbicidal activity against ABUTH", "setting": "ABUTH; 3.0 kg/ha", "result": "very good (a very good herbicidal activity is given at values of at least 85)"}]}, {"smiles": "O=C(O)C(F)(F)F.O=c1oc2cccnc2c(O)c1-c1ccccc1OC(F)(F)F", "note": "[I-11]", "values": [{"measurement": "herbicidal activity against SETFA", "setting": "SETFA; 3.0 kg/ha", "result": "very good (a very good herbicidal activity is given at values of at least 85)"}, {"measurement": "herbicidal activity against ABUTH", "setting": "ABUTH; 3.0 kg/ha", "result": "very good (a very good herbicidal activity is given at values of at least 85)"}]}, {"smiles": "O=c1oc2cccnc2c(O)c1-c1ccccc1OC(F)F", "note": "[I-12]", "values": [{"measurement": "herbicidal activity against SETFA", "setting": "SETFA; 3.0 kg/ha", "result": "very good (a very good herbicidal activity is given at values of at least 85)"}]}, {"smiles": "O=c1oc2cccnc2c(O)c1-c1ccccc1Br", "note": "[I-13]", "values": [{"measurement": "herbicidal activity against SETFA", "setting": "SETFA; 3.0 kg/ha", "result": "very good (a very good herbicidal activity is given at values of at least 85)"}, {"measurement": "herbicidal activity against ABUTH", "setting": "ABUTH; 3.0 kg/ha", "result": "very good (a very good herbicidal activity is given at values of at least 85)"}]}, {"smiles": "O=c1sc2cccnc2c(O)c1-c1ccccc1C(F)(F)F", "note": "[I-17]", "values": [{"measurement": "herbicidal activity against SETFA", "setting": "SETFA; 3.0 kg/ha", "result": "very good (a very good herbicidal activity is given at values of at least 85)"}, {"measurement": "herbicidal activity against AVEFA", "setting": "AVEFA", "result": "very good (a very good herbicidal activity is given at values of at least 85)"}]}, {"smiles": "O=c1oc2cccnc2c(O)c1-c1ccccc1C(F)(F)F", "note": "[I-18]", "values": [{"measurement": "herbicidal activity against AVEFA", "setting": "AVEFA", "result": "very good (a very good herbicidal activity is given at values of at least 85)"}]}, {"smiles": "O=c1oc2ccc[n+]([O-])c2c(O)c1-c1ccccc1C(F)(F)F", "note": "[I-19]", "values": [{"measurement": "herbicidal activity against SETFA", "setting": "SETFA; 3.0 kg/ha", "result": "very good (a very good herbicidal activity is given at values of at least 85)"}, {"measurement": "herbicidal activity against AVEFA", "setting": "AVEFA", "result": "very good (a very good herbicidal activity is given at values of at least 85)"}]}, {"smiles": "O=C(O)C(F)(F)F.O=c1oc2cccnc2c(O)c1-c1ccc(Cl)cc1Cl", "note": "[I-20]", "values": [{"measurement": "herbicidal activity against SETFA", "setting": "SETFA; 2.0 kg/ha", "result": "very good (a very good herbicidal activity is given at values of at least 85)"}, {"measurement": "herbicidal activity against SETFA", "setting": "SETFA; 3.0 kg/ha", "result": "very good (a very good herbicidal activity is given at values of at least 85)"}, {"measurement": "herbicidal activity against ABUTH", "setting": "ABUTH; 2.0 kg/ha", "result": "very good (a very good herbicidal activity is given at values of at least 85)"}, {"measurement": "herbicidal activity against ABUTH", "setting": "ABUTH; 3.0 kg/ha", "result": "very good (a very good herbicidal activity is given at values of at least 85)"}]}, {"smiles": "O=c1oc2ccc(Br)nc2c(O)c1-c1ccccc1C(F)(F)F", "note": "[I-21]", "values": [{"measurement": "herbicidal activity against SETFA", "setting": "SETFA; 3.0 kg/ha", "result": "very good (a very good herbicidal activity is given at values of at least 85)"}, {"measurement": "herbicidal activity against AVEFA", "setting": "AVEFA", "result": "very good (a very good herbicidal activity is given at values of at least 85)"}]}, {"smiles": "O=c1oc2ccc(OCc3ccccc3)nc2c(O)c1-c1ccccc1C(F)(F)F", "note": "[I-22]", "values": [{"measurement": "herbicidal activity against SETFA", "setting": "SETFA; 3.0 kg/ha", "result": "good (A good herbicidal activity is given at values of at least 70)"}, {"measurement": "herbicidal activity against ABUTH", "setting": "ABUTH; 3.0 kg/ha", "result": "very good (a very good herbicidal activity is given at values of at least 85)"}]}, {"smiles": "O=c1oc2ccc(O)nc2c(O)c1-c1ccccc1C(F)(F)F", "note": "[I-23]", "values": [{"measurement": "herbicidal activity against SETFA", "setting": "SETFA; 3.0 kg/ha", "result": "good (A good herbicidal activity is given at values of at least 70)"}]}, {"smiles": "O=c1oc2ccc[n+]([O-])c2c(O)c1-c1ccccc1OC(F)F", "note": "[I-26]", "values": [{"measurement": "herbicidal activity against SETFA", "setting": "SETFA; 3.0 kg/ha", "result": "very good (a very good herbicidal activity is given at values of at least 85)"}, {"measurement": "herbicidal activity against ABUTH", "setting": "ABUTH; 3.0 kg/ha", "result": "very good (a very good herbicidal activity is given at values of at least 85)"}]}, {"smiles": "O=c1oc2cccnc2c(O)c1-c1cccc(OC(F)(F)F)c1", "note": "[I-27, 4-hydroxy-3-(3-trifluoromethoxyphenyl)pyrano[3,2-b]pyridin-2-one]", "values": [{"measurement": "herbicidal activity against SETFA", "setting": "SETFA; 3.0 kg/ha", "result": "very good (a very good herbicidal activity is given at values of at least 85)"}]}, {"smiles": "O=c1oc2cccnc2c(O)c1-c1cc(C(F)(F)F)ccc1C(F)(F)F", "note": "[I-35]", "values": [{"measurement": "herbicidal activity against CHEAL", "setting": "CHEAL; 0.5 kg/ha", "result": "very good (a very good herbicidal activity is given at values of at least 85)"}, {"measurement": "herbicidal activity against ABUTH", "setting": "ABUTH; 3.0 kg/ha", "result": "very good (a very good herbicidal activity is given at values of at least 85)"}, {"measurement": "herbicidal activity against ECHCG", "setting": "ECHCG", "result": "very good (a very good herbicidal activity is given at values of at least 85)"}]}, {"smiles": "O=c1oc2cccnc2c(O)c1-c1ccc(C(F)(F)F)cc1C(F)(F)F", "note": "[I-36]", "values": [{"measurement": "herbicidal activity against AMARE", "setting": "AMARE; 0.5 kg/ha", "result": "very good (a very good herbicidal activity is given at values of at least 85)"}, {"measurement": "herbicidal activity against CHEAL", "setting": "CHEAL; 0.5 kg/ha", "result": "very good (a very good herbicidal activity is given at values of at least 85)"}]}, {"smiles": "O=c1oc2cccnc2c(O)c1-c1ccc(F)cc1C(F)(F)F", "note": "[I-37]", "values": [{"measurement": "herbicidal activity against AMARE", "setting": "AMARE; 0.5 kg/ha", "result": "very good (a very good herbicidal activity is given at values of at least 85)"}, {"measurement": "herbicidal activity against CHEAL", "setting": "CHEAL; 0.5 kg/ha", "result": "very good (a very good herbicidal activity is given at values of at least 85)"}, {"measurement": "herbicidal activity against ECHCG", "setting": "ECHCG", "result": "very good (a very good herbicidal activity is given at values of at least 85)"}]}, {"smiles": "O=c1oc2cccnc2c(O)c1-c1c(F)cccc1Cl", "note": "[I-40]", "values": [{"measurement": "herbicidal activity against AMARE", "setting": "AMARE; 0.5 kg/ha", "result": "very good (a very good herbicidal activity is given at values of at least 85)"}, {"measurement": "herbicidal activity against SETVI", "setting": "SETVI; 0.5 kg/ha", "result": "very good (a very good herbicidal activity is given at values of at least 85)"}, {"measurement": "herbicidal activity against CHEAL", "setting": "CHEAL; 0.5 kg/ha", "result": "very good (a very good herbicidal activity is given at values of at least 85)"}]}, {"smiles": "O=c1oc2cccnc2c(O)c1-c1cc(C(F)(F)F)ccc1Cl", "note": "[I-41]", "values": [{"measurement": "herbicidal activity against AMARE", "setting": "AMARE; 0.5 kg/ha", "result": "very good (a very good herbicidal activity is given at values of at least 85)"}, {"measurement": "herbicidal activity against CHEAL", "setting": "CHEAL; 0.5 kg/ha", "result": "very good (a very good herbicidal activity is given at values of at least 85)"}]}, {"smiles": "O=c1oc2cccnc2c(O)c1-c1ccccc1I", "note": "[I-42]", "values": [{"measurement": "herbicidal activity against AMARE", "setting": "AMARE; 1.0 kg/ha", "result": "very good (a very good herbicidal activity is given at values of at least 85)"}]}, {"smiles": "COc1cc(F)c(F)cc1-c1c(O)c2ncccc2oc1=O", "note": "[I-43]", "values": [{"measurement": "herbicidal activity against AMARE", "setting": "AMARE; 0.5 kg/ha", "result": "very good (a very good herbicidal activity is given at values of at least 85)"}]}, {"smiles": "O=c1oc2cccnc2c(O)c1-c1c(F)ccc(F)c1Cl", "note": "[I-47]", "values": [{"measurement": "herbicidal activity against AMARE", "setting": "AMARE; 0.5 kg/ha", "result": "very good (a very good herbicidal activity is given at values of at least 85)"}, {"measurement": "herbicidal activity against CHEAL", "setting": "CHEAL; 0.5 kg/ha", "result": "very good (a very good herbicidal activity is given at values of at least 85)"}]}, {"smiles": "O=c1oc2cccnc2c(O)c1-c1ccccc1OC(F)(F)F", "note": "[I-49]", "values": [{"measurement": "herbicidal activity against AMARE", "setting": "AMARE; 0.5 kg/ha", "result": "very good (a very good herbicidal activity is given at values of at least 85)"}, {"measurement": "herbicidal activity against CHEAL", "setting": "CHEAL; 0.5 kg/ha", "result": "very good (a very good herbicidal activity is given at values of at least 85)"}, {"measurement": "herbicidal activity against ECHCG", "setting": "ECHCG", "result": "very good (a very good herbicidal activity is given at values of at least 85)"}]}, {"smiles": "O=c1oc2cccnc2c(O)c1-c1ccc(C(F)(F)F)cc1Br", "note": "[I-50]", "values": [{"measurement": "herbicidal activity against SETVI", "setting": "SETVI; 1.0 kg/ha", "result": "very good (a very good herbicidal activity is given at values of at least 85)"}, {"measurement": "herbicidal activity against CHEAL", "setting": "CHEAL; 1.0 kg/ha", "result": "very good (a very good herbicidal activity is given at values of at least 85)"}]}, {"smiles": "O=c1oc2cccnc2c(O)c1-c1cc(F)ccc1Cl", "note": "[I-51]", "values": [{"measurement": "herbicidal activity against AMARE", "setting": "AMARE; 0.5 kg/ha", "result": "very good (a very good herbicidal activity is given at values of at least 85)"}, {"measurement": "herbicidal activity against SETVI", "setting": "SETVI; 0.5 kg/ha", "result": "very good (a very good herbicidal activity is given at values of at least 85)"}, {"measurement": "herbicidal activity against CHEAL", "setting": "CHEAL; 0.5 kg/ha", "result": "very good (a very good herbicidal activity is given at values of at least 85)"}]}, {"smiles": "O=c1oc2cccnc2c(O)c1-c1cc(F)c(F)cc1Cl", "note": "[I-52]", "values": [{"measurement": "herbicidal activity against AMARE", "setting": "AMARE; 0.5 kg/ha", "result": "very good (a very good herbicidal activity is given at values of at least 85)"}, {"measurement": "herbicidal activity against CHEAL", "setting": "CHEAL; 0.5 kg/ha", "result": "very good (a very good herbicidal activity is given at values of at least 85)"}]}, {"smiles": "O=c1oc2cccnc2c(O)c1-c1c(Cl)cc(OC(F)(F)F)cc1Cl", "note": "[I-53]", "values": [{"measurement": "herbicidal activity against AVEFA", "setting": "AVEFA", "result": "very good (a very good herbicidal activity is given at values of at least 85)"}]}]}
